Some of these results come from one statement about several compounds together.
Key:
Assay type in all cases: in vivo
[1] = test system: green peach aphid (Myzus persicae); test: Myzus persicae test (MYZUPE spray treatment); details: application rate of 500 g/ha, spray treatment of Chinese cabbage discs
Echinocloa crus-galli [2] = test: Herbicidal pre-emergence action; details: pre-emergence method, 320 g/ha of a.i., visual assessment after 3 weeks
Lolium multiflorum [3] = test: Herbicidal pre-emergence action; details: pre-emergence method, 320 g/ha of a.i., visual assessment after 3 weeks
Setaria viridis [4] = test: Herbicidal pre-emergence action; details: pre-emergence method, 320 g/ha of a.i., visual assessment after 3 weeks
Alopecurus myosuroides = test: Herbicidal post-emergence action; details: post-emergence method, 80 g/ha, rated after about 3 weeks
Echinocloa crus-galli [5] = test: Herbicidal post-emergence action; details: post-emergence method, 80 g/ha, rated after about 3 weeks
Lolium multiflorum [6] = test: Herbicidal post-emergence action; details: post-emergence method, 80 g/ha, rated after about 3 weeks
Setaria viridis [7] = test: Herbicidal post-emergence action; details: post-emergence method, 80 g/ha, rated after about 3 weeks
[8] = test system: larvae of the mustard beetle (Phaedon cochleariae); test: Phaedon test (PHAECO spray treatment); details: application rate of 500 g/ha, spray treatment of Chinese cabbage discs
[9] = test system: greenhouse red spider mite (Tetranychus urticae); test: Tetranychus test, OP-resistant (TETRUR spray treatment); details: application rate of 100 g/ha, spray treatment of bean leaf discs

| SMILES | effect in % (aphids destroyed) [1] [%] | herbicidal activity in percent against Echinocloa crus-galli (Echinocloa crus-galli [2]) [%] | herbicidal activity in percent against Lolium multiflorum (Lolium multiflorum [3]) [%] | herbicidal activity in percent against Setaria viridis (Setaria viridis [4]) [%] | herbicidal activity in percent against Alopecurus myosuroides (Alopecurus myosuroides) [%] | herbicidal activity in percent against Echinocloa crus-galli (Echinocloa crus-galli [5]) [%] | herbicidal activity in percent against Lolium multiflorum (Lolium multiflorum [6]) [%] | herbicidal activity in percent against Setaria viridis (Setaria viridis [7]) [%] | further results |
| --- | --- | --- | --- | --- | --- | --- | --- | --- | --- |
| CCC1(OC)CCC2(CC1)NC(=O)C(c1c(C)cc(Cl)cc1C)=C2O (single isomer, unassigned) [I-a-29] | ≥ 280 |  |  |  |  |  |  |  |  |
| CCOC1(C)CCC2(CC1)NC(=O)C(c1c(Br)cc(C)cc1CC)=C2O (mixture of isomers) [I-a-59] | ≥ 280 | ≥ 80 | ≥ 80 | ≥ 80 | ≥ 80 | ≥ 80 | ≥ 80 | ≥ 80 |  |
| COC1(C)CCC2(CC1)NC(=O)C(c1c(C)ccc(Br)c1C)=C2O (stereo not shown) [I-a-16] | ≥ 280 |  |  |  |  |  |  |  |  |
| CCc1cc(Cl)cc(OC)c1C1=C(O)C2(CCC(CC)(OC)CC2)NC1=O (single isomer, unassigned) [I-a-25] |  |  |  |  | ≥ 80 | ≥ 80 | ≥ 80 | ≥ 80 |  |
| CCc1cc(Br)cc(C)c1C1=C(O)C2(CCC(C)(OC)CC2)NC1=O (stereo not shown) [I-a-49] |  |  |  |  |  |  |  |  | effect in % (beetle larvae killed) [8]: ≥ 80% |
| CCc1cc(Br)cc(C)c1C1=C(O)C2(CCC(CC)(OC)CC2)NC1=O (stereo not shown) [I-a-65] | ≥ 280 |  |  |  |  |  |  |  |  |
| CCCC1(OC)CCC2(CC1)NC(=O)C(c1c(C)ccc(-c3ccc(F)cc3)c1C)=C2O (stereo not shown) [I-a-70] | ≥ 280 |  |  |  |  |  |  |  |  |
| COC1(C)CCC2(CC1)NC(=O)C(c1c(C)cc(Cl)cc1C)=C2O (single isomer, unassigned) [I-a-20] |  |  |  |  |  |  |  |  | effect in % (beetle larvae killed) [8]: ≥ 80% |
| CCC1(OC)CCC2(CC1)NC(=O)C(c1c(C)cc(Cl)cc1C)=C2O (single isomer, unassigned) [I-a-28] |  |  |  |  |  |  |  |  | effect in % (beetle larvae killed) [8]: ≥ 80% |
| CCc1cc(Br)cc(C)c1C1=C(O)C2(CCC(C)(OC)CC2)NC1=O (stereo not shown) [I-a-48] | ≥ 280 | ≥ 80 | ≥ 80 | ≥ 80 | ≥ 80 | ≥ 80 | ≥ 80 | ≥ 80 |  |
| CCOc1cc(Cl)cc(C)c1C1=C(O)C2(CCC(C)(OC)CC2)NC1=O (stereo not shown) [I-a-55] | ≥ 280 |  |  |  |  |  |  |  |  |
| CCc1cc(Cl)cc(OC)c1C1=C(O)C2(CCC(C)(OC)CC2)NC1=O (mixture of isomers) [I-a-9] |  |  |  |  | ≥ 80 | ≥ 80 | ≥ 80 | ≥ 80 |  |
| CCc1cc(Cl)cc(OC)c1C1=C(O)C2(CCC(CC)(OC)CC2)NC1=O (single isomer, unassigned) [I-a-24] | ≥ 280 |  |  |  |  |  |  |  |  |
| CCc1cc(C)cc(C)c1C1=C(O)C2(CCC(CC)(OC)CC2)NC1=O (mixture of isomers) [I-a-63] | ≥ 280 | ≥ 80 | ≥ 80 | ≥ 80 | ≥ 80 | ≥ 80 | ≥ 80 | ≥ 80 | effect in % (beetle larvae killed) [8]: ≥ 80% |
| CCOC1(C)CCC2(CC1)NC(=O)C(c1c(CC)cc(Cl)cc1OC)=C2O (mixture of isomers) [I-a-58] | ≥ 280 | ≥ 80 | ≥ 80 | ≥ 80 | ≥ 80 | ≥ 80 | ≥ 80 | ≥ 80 |  |
| CCc1cc(Br)cc(C)c1C1=C(O)C2(CCC(CC)(OC)CC2)NC1=O (stereo not shown) [I-a-66] |  | ≥ 80 | ≥ 80 | ≥ 80 |  |  |  |  |  |
| CCc1cc(C)cc(CC)c1C1=C(O)C2(CCC(C)(OC)CC2)NC1=O (stereo not shown) [I-a-45] | ≥ 280 |  |  |  | ≥ 80 | ≥ 80 | ≥ 80 | ≥ 80 |  |
| CCc1cc(C)cc(Br)c1C1=C(O)C2(CCC(C)(OC)CC2)NC1=O (stereo not shown) [I-a-1] |  | ≥ 80 | ≥ 80 | ≥ 80 | ≥ 80 | ≥ 80 | ≥ 80 | ≥ 80 |  |

| SMILES | effect in % (aphids destroyed) [1] [%] | herbicidal activity in percent against Echinocloa crus-galli (Echinocloa crus-galli [2]) [%] | herbicidal activity in percent against Lolium multiflorum (Lolium multiflorum [3]) [%] | herbicidal activity in percent against Setaria viridis (Setaria viridis [4]) [%] | herbicidal activity in percent against Alopecurus myosuroides (Alopecurus myosuroides) [%] | herbicidal activity in percent against Echinocloa crus-galli (Echinocloa crus-galli [5]) [%] | herbicidal activity in percent against Lolium multiflorum (Lolium multiflorum [6]) [%] | herbicidal activity in percent against Setaria viridis (Setaria viridis [7]) [%] | further results |
| --- | --- | --- | --- | --- | --- | --- | --- | --- | --- |
| CCOC1(C)CCC2(CC1)NC(=O)C(c1c(C)cc(Br)cc1C)=C2O (stereo not shown) [I-a-57] | ≥ 280 |  |  |  |  |  |  |  |  |
| COC1(C)CCC2(CC1)NC(=O)C(c1cc(C)ccc1C)=C2O (single isomer, unassigned) [I-a-6] | ≥ 280 |  |  |  |  |  |  |  |  |
| CCC1(OC)CCC2(CC1)NC(=O)C(c1cc(-c3ccc(F)cc3)ccc1C)=C2O (stereo not shown) [I-a-67] | ≥ 280 |  |  |  |  |  |  |  |  |
| COc1cc(Cl)cc(C)c1C1=C(O)C2(CCC(C)(OC)CC2)NC1=O (mixture of isomers) [I-a-7] | ≥ 280 | ≥ 80 | ≥ 80 | ≥ 80 |  |  |  |  |  |
| CCc1cc(C)cc(Br)c1C1=C(O)C2(CCC(CC)(OC)CC2)NC1=O (stereo not shown) [I-a-62] |  |  |  |  | ≥ 80 | ≥ 80 | ≥ 80 | ≥ 80 |  |
| CCOc1cc(Cl)cc(CC)c1C1=C(O)C2(CCC(C)(OC)CC2)NC1=O (stereo not shown) [I-a-42] | ≥ 280 |  |  |  | ≥ 80 | ≥ 80 | ≥ 80 | ≥ 80 |  |
| COC1(C)CCC2(CC1)NC(=O)C(c1c(C)cc(Cl)cc1C)=C2OC(=O)C(C)C (stereo not shown) [I-b-1] | ≥ 280 |  |  |  |  |  |  |  | effect in % (spider mites killed) [9]: ≥ 80% |
| CCOC1(C)CCC2(CC1)NC(=O)C(c1c(C)cc(Cl)cc1C)=C2O (single isomer, unassigned) [I-a-17] | ≥ 280 |  |  |  |  |  |  |  | effect in % (beetle larvae killed) [8]: ≥ 80% |
| CCc1cc(C)cc(Br)c1C1=C(O)C2(CCC(C)(OC)CC2)NC1=O (stereo not shown) [I-a-2] | ≥ 280 |  |  |  |  |  |  |  | effect in % (spider mites killed) [9]: ≥ 80% |
| CCOC1(C)CCC2(CC1)NC(=O)C(c1c(C)cc(Cl)cc1OC)=C2O (single isomer, unassigned) [I-a-14] | ≥ 280 |  |  |  |  |  |  |  | effect in % (beetle larvae killed) [8]: ≥ 80% |
| CCc1cc(Cl)cc(OC)c1C1=C(O)C2(CCC(C)(OC)CC2)NC1=O (single isomer, unassigned) [I-a-8] | ≥ 280 | ≥ 80 | ≥ 80 | ≥ 80 |  |  |  |  |  |
| COC(=O)OC1=C(c2c(C)cc(Cl)cc2C)C(=O)NC12CCC(C)(OC)CC2 (stereo not shown) [I-c-1] | ≥ 280 |  |  |  |  |  |  |  | effect in % (spider mites killed) [9]: ≥ 80% |
| CCc1cc(Cl)cc(OC)c1C1=C(O)C2(CCC(CC)(OC)CC2)NC1=O (stereo not shown) [I-a-33] |  | ≥ 80 | ≥ 80 | ≥ 80 |  |  |  |  |  |
| CCc1cc(C)cc(Br)c1C1=C(O)C2(CCC(CC)(OC)CC2)NC1=O (stereo not shown) [I-a-37] | ≥ 280 | ≥ 80 | ≥ 80 | ≥ 80 |  |  |  |  |  |
| COC1(C)CCC2(CC1)NC(=O)C(c1ccc(Cl)cc1C)=C2O (stereo not shown) [I-a-50] |  |  |  |  |  |  |  |  | effect in % (beetle larvae killed) [8]: ≥ 80% |
| CCc1cc(C)cc(CC)c1C1=C(O)C2(CCC(CC)(OC)CC2)NC1=O (stereo not shown) [I-a-69] | ≥ 280 | ≥ 80 | ≥ 80 | ≥ 80 | ≥ 80 | ≥ 80 | ≥ 80 | ≥ 80 |  |
| COC1(C)CCC2(CC1)NC(=O)C(c1c(C)cc(-c3ccc(Cl)cc3)cc1C)=C2O (stereo not shown) [I-a-54] | ≥ 280 | ≥ 80 | ≥ 80 | ≥ 80 |  |  |  |  |  |
